Paper PMC13475435
Results are given in words; binding and its absence hold for the method and conditions named. Binding seen in cells or lysates may run through a third protein. Some binding calls cover weakened binding; strength is not graded here. For some assays here: Sequences can lack the tags named with a protein.

Amino acid sequences for entries named in this document (tags omitted). A change or cut given only in a name is not applied to a line headed by its entry.
UniProt A2ABV5: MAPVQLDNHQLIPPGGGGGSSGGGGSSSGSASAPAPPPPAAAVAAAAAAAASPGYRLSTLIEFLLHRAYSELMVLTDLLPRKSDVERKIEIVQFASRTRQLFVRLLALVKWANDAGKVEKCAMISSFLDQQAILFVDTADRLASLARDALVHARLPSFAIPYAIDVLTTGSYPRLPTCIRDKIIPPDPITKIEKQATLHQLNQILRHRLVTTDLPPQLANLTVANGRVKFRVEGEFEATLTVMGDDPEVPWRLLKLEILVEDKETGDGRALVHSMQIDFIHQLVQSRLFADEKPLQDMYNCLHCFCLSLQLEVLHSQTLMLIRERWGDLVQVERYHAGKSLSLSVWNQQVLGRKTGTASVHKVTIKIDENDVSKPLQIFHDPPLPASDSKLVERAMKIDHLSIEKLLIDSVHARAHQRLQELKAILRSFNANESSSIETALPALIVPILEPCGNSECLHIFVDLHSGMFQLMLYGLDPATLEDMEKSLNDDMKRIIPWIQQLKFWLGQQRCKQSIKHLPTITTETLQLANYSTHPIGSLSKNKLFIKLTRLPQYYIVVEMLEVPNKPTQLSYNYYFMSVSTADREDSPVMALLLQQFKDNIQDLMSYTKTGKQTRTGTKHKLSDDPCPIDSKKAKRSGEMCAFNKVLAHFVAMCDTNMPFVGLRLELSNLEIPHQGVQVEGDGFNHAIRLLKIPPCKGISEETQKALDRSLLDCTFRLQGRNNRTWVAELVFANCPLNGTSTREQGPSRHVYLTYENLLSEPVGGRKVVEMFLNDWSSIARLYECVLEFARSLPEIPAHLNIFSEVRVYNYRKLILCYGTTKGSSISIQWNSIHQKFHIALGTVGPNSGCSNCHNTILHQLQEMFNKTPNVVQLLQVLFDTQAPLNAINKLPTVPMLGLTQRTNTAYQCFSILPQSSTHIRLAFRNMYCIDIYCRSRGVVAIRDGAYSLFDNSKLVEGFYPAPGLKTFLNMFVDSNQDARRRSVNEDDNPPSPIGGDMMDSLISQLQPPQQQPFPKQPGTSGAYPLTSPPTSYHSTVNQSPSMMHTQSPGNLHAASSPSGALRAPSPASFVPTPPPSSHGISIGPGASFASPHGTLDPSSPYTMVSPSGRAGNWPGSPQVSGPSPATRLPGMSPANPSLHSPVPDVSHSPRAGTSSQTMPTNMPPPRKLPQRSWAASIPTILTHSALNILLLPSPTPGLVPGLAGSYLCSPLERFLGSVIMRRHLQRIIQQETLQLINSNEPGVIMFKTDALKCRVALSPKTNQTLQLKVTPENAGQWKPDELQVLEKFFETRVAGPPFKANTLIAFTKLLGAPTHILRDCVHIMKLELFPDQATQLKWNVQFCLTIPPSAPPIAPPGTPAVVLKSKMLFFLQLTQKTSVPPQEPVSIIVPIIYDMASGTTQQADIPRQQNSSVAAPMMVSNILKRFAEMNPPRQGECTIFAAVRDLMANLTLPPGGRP
UniProt O60244: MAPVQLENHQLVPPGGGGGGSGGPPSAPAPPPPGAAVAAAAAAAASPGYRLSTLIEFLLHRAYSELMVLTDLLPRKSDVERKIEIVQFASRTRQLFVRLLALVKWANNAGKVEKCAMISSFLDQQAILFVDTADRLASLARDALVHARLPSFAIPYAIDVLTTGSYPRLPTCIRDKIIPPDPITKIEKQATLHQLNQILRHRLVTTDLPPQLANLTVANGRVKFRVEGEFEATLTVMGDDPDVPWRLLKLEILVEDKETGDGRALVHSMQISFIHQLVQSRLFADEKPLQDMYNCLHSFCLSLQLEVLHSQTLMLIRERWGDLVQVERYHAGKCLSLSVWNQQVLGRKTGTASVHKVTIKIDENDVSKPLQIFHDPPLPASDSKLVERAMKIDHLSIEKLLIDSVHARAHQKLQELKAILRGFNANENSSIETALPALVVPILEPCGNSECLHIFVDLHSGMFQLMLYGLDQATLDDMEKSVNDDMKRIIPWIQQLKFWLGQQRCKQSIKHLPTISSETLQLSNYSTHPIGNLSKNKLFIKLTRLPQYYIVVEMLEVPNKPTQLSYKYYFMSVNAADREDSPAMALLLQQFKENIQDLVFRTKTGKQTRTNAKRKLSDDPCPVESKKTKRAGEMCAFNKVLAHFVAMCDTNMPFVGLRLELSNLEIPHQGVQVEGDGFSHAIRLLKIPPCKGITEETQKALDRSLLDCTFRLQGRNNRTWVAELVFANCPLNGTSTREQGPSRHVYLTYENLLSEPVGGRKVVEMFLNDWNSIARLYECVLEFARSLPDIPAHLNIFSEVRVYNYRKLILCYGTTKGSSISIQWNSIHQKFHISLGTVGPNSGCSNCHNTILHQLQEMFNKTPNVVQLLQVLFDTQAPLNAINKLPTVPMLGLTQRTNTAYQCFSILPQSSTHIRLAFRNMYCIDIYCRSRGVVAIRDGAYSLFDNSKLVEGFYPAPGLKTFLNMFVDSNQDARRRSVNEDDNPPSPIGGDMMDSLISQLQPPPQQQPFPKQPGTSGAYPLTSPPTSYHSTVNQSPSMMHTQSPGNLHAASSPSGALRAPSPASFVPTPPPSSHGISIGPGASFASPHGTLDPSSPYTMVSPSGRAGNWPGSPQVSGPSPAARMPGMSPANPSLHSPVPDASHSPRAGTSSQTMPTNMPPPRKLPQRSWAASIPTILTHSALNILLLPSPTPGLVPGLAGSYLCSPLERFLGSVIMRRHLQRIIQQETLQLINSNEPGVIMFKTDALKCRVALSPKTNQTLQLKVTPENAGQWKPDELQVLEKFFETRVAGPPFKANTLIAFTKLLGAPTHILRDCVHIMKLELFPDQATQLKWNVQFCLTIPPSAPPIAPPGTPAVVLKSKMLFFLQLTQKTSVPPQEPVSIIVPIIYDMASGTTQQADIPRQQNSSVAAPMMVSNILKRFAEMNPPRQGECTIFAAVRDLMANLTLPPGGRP

T1: zebrafish Med17 (endogenous in embryos) (zebrafish (endogenous in embryos)) (UniProt Q08BY1)
T1 sequence: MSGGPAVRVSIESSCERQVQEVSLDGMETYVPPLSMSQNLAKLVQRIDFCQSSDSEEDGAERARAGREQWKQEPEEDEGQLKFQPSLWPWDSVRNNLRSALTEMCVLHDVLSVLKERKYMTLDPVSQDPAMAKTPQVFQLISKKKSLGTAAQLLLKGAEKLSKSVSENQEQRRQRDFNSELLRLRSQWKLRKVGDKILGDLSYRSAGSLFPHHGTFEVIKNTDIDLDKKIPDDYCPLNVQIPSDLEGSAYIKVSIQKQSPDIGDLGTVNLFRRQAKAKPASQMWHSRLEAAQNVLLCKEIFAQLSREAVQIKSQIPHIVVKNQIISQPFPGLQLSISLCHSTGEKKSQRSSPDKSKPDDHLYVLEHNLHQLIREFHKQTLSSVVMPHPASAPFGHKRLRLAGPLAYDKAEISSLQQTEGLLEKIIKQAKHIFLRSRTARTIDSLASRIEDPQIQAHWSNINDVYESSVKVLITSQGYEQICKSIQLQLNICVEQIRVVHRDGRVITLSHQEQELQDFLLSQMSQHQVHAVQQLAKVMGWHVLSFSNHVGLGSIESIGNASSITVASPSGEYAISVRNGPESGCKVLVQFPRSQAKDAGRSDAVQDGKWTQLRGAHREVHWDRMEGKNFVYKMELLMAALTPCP

T2: zebrafish Med7 (endogenous in embryos) (zebrafish (endogenous in embryos)) (UniProt Q7ZV35)
T2 sequence: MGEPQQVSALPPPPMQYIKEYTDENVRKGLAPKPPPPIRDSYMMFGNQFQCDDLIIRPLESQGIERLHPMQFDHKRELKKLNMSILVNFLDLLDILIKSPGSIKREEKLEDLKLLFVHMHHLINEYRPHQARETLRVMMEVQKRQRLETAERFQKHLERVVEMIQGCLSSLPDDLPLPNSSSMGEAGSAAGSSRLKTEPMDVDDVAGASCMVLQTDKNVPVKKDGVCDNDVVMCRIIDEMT


Experiments:
[1] = target: mouse MED14, wild type (endogenous in MEFs) (mouse (endogenous in MEFs)) (UniProt A2ABV5); assay: co-IP; endogenous proteins of primary MEFs isolated from WT and I556V mice at E12.5; antibody of the IP not stated; western blot for MED6, MED7, MED8, MED17, RPB1
[2] = target: mouse MED14-I556V (endogenous in MEFs of knock-in mice) (mouse (endogenous in MEFs)) (UniProt A2ABV5); assay: as above
[3] = target: Flag-tagged WT human MED14 (hMED14) (human) (UniProt O60244); assay: co-IP; HEK293T co-transfected with Flag-hMED14 (WT or I550V) and the partner; lysed in RIPA buffer 24 h after transfection; IP with anti-Flag antibody, protein A-Sepharose, overnight at 4 °C; western blot
[4] = target: Flag-tagged human MED14 I550V variant (hMED14-I550V) (human) (UniProt O60244); assay: as above
[5] = target: T1, zebrafish Med17 (endogenous in embryos) (zebrafish (endogenous in embryos)); assay: co-IP; endogenous proteins of zebrafish embryos (wild type, the comparison for the med14 mutants); IP with anti-Med17 or anti-Med7 antibody, western blot
[6] = target: T2, zebrafish Med7 (endogenous in embryos) (zebrafish (endogenous in embryos)); assay: as above

binding [1]	binding [2]	binding [3]	binding [4]	Binder	further results
binds	binds weakly			mouse MED17 (endogenous in MEFs) (protein, UniProt Q8VCD5 1-649) MSGVRAVRISIESACEKQVQEVGLDGTETYLQPLSMSQNLARLAQRIDFSQGSGSEEEEAAGPDGDAPDWGGAGADQDDEEGLVKFQPSLWPWDSVRNNLRSALTEMCVLYDVLSIVRDKKFMTLDPVSQDALPPKQSPQTLQLISKKKSLAGAAQILLKGAERLTKSVAENQENKLQRDFNSELLRLRQHWKLRKVGDKILGDLSYRSAGSLFPHHGTFEVIKNTDIDLDKKIPEDYCPLDVQIPSDLEGSAYIKVSIQKQAPDIGDLGTVNLFKRPLPKSKPGSPHWQTKLEAAQNVLLCKEIFAQLSREAVQIKSQIPHIVVKNQIISQPFPSLQLSISLCHSSDDKKSQKCAAEKPGQEDHLYVLEHNLHLLIREFHKQTLSSIVMPHPASAPFGHKRMRLSGPQAFDKNEINSIQSTEGLLEKIIKQAKHIFLRSRTAATIDSLASRIEDPQIQAHWSNINDVYESSVKVLITSQGYEQICKSIQLQLNIGVEQVRVVHRDGRVIMLSHQEQELQDFLLSQMSQHQVHAVQQLAKVMGWQVLSFSNHVGLGPIESIGNASAITVASPSGDYAISVRNGPESGSKIMVQFPRNQCKDLPKSDVLQDSKWSHLRGPFKEVQWNKMEGRNFVYKMELLMSALSPCLL	
binds	binds weakly			mouse MED7 (endogenous in MEFs) (protein, UniProt Q9CZB6 1-233) MGEPQQVSALPPPPMQYIKEYTDENIQEGLAPKPPPPIKDSYMMFGNQFQCDDLIIRPLESQGIERLHPMQFDHKKELRKLNMSILINFLDLLDILIRSPGSIKREEKLEDLKLLFVHVHHLINEYRPHQARETLRVMMEVQKRQRLETAERFQKHLERVIEMIQNCLASLPDDLPHSEAGMRVKAEPMDTDDNSNCPGQNEQQRESSGHRRDQIIEKDAALCVLIDEMNERP	
binds	binds			mouse MED8 (endogenous in MEFs) (protein, UniProt Q9D7W5 1-268) MQREEKQLEASLDALLNQVADLKNSLGSFIYKLENEYDRLTWPSVLDSFALLSGQLNTLNKVLKHEKTPLFRNQVIIPLVLSPDRDEDLMRQTEGRVPVFSHEVVPDHLRTKPDPEVEEQEKQLTTDAARIGADAAQKQIQSLNKMCSNLLEKISKEERESESGGLRPNKQTFNPGDTNALVAAVAFGKGLSNWRPSGSSGPGQPGQPGAGTILAGASGLPQVQMPGAPNQQQPMLSGVQMAQAGQPGKMPSGIKTNIKSASMHPYQR	

More lines, now with the values behind:

Binder	binding [1]	binding [2]	binding [3]	binding [4]	further results
Myc-tagged human MED17 (hMED17) (protein, UniProt Q9NVC6 1-651) MSGVRAVRISIESACEKQVHEVGLDGTETYLPPLSMSQNLARLAQRIDFSQGSGSEEEEAAGTEGDAQEWPGAGSSADQDDEEGVVKFQPSLWPWDSVRNNLRSALTEMCVLYDVLSIVRDKKFMTLDPVSQDALPPKQNPQTLQLISKKKSLAGAAQILLKGAERLTKSVTENQENKLQRDFNSELLRLRQHWKLRKVGDKILGDLSYRSAGSLFPHHGTFEVIKNTDLDLDKKIPEDYCPLDVQIPSDLEGSAYIKVSIQKQAPDIGDLGTVNLFKRPLPKSKPGSPHWQTKLEAAQNVLLCKEIFAQLSREAVQIKSQVPHIVVKNQIISQPFPSLQLSISLCHSSNDKKSQKFATEKQCPEDHLYVLEHNLHLLIREFHKQTLSSIMMPHPASAPFGHKRMRLSGPQAFDKNEINSLQSSEGLLEKIIKQAKHIFLRSRAAATIDSLASRIEDPQIQAHWSNINDVYESSVKVLITSQGYEQICKSIQLQLNIGVEQIRVVHRDGRVITLSYQEQELQDFLLSQMSQHQVHAVQQLAKVMGWQVLSFSNHVGLGPIESIGNASAITVASPSGDYAISVRNGPESGSKIMVQFPRNQCKDLPKSDVLQDNKWSHLRGPFKEVQWNKMEGRNFVYKMELLMSALSPCLL			binds	binds	
zebrafish Med6 (endogenous in embryos) (protein, UniProt Q6IQ63 1-254) MATVDLRDNLLGISWVDSGWVPILNPSNVLEYFSERSNPFYDRTCNNEVVKMQRSTLDHLTQLVGVEYILLHTQEPILYIIRKQQRQSPTQVIPLADYYIIAGVVYQAPDLGSVISSRALSAVHGIQSAFDEAMSFCRYHPSKGYWWHFKDQEEKERVKPKSKRKEEPSSLFQRQRVDTLLLDLRNKFPPTFYQTKPGEKPVPVEVKKEPEVPVETVKPQEERETKPPAPPAPPRPPPQTTPNKPPPEKRARVQ					binding [5]: binds; binding [6]: binds
Myc-tagged human MED7 (hMED7) (protein, UniProt O43513 1-233) MGEPQQVSALPPPPMQYIKEYTDENIQEGLAPKPPPPIKDSYMMFGNQFQCDDLIIRPLESQGIERLHPMQFDHKKELRKLNMSILINFLDLLDILIRSPGSIKREEKLEDLKLLFVHVHHLINEYRPHQARETLRVMMEVQKRQRLETAERFQKHLERVIEMIQNCLASLPDDLPHSEAGMRVKTEPMDADDSNNCTGQNEHQRENSGHRRDQIIEKDAALCVLIDEMNERP			binds	binds weakly	
human MED8 (hMED8) (protein, UniProt Q96G25 1-268) MQREEKQLEASLDALLSQVADLKNSLGSFICKLENEYGRLTWPSVLDSFALLSGQLNTLNKVLKHEKTPLFRNQVIIPLVLSPDRDEDLMRQTEGRVPVFSHEVVPDHLRTKPDPEVEEQEKQLTTDAARIGADAAQKQIQSLNKMCSNLLEKISKEERESESGGLRPNKQTFNPTDTNALVAAVAFGKGLSNWRPSGSSGPGQAGQPGAGTILAGTSGLQQVQMAGAPSQQQPMLSGVQMAQAGQPGKMPSGIKTNIKSASMHPYQR			binds	binds	
mouse MED6 (endogenous in MEFs) (protein, UniProt Q921D4 1-246) MAAVDIRDNLLGISWVDSSWIPILNSGSVLDYFSERSNPFYDRTCNNEVVKMQRLTLEHLNQMVGIEYILLHAQEPILFIIRKQQRQSPAQVIPLADYYIIAGVIYQAPDLGSVINSRVLTAVHGIQSAFDEAMSYCRYHPSKGYWWHFKDHEEQEKVKPKAKRKEEPSSIFQRQRVDALLIDLRQKFPPRFVQQKSGEKPVPVDQAKKEAEPLPETVKSEEKESTKNIQQTVSTKGPPEKRMRLQ	binds	binds			
zebrafish Med8 (endogenous in embryos) (protein, UniProt Q6NYT1 1-267) MQQREEKQLEAFLESLVARVAHLKGSLQSFIYKLENEYDRLTWPSVLDNFALISGQLNTINKLLRNEKTPSYKSQVIIPLLLSPDRDEELAKLTEHRVPVFSHEIVPDHLRTKPDPEVEEQEKHLSAEAARIGPEVAQKQIQALNKLCSNLLEKLNNPREDRDSETSALRQNKPSFNPADTNALVAAVGFGKGLSKCRPPGPVAPGHPGQPMMQTGPTLQQVTIAGASGHQAGMSGPVAPQQPGQPGKIPSNIKTNIKSASMHPYNR					binding [5]: binds; binding [6]: binds
human MED6 (hMED6) (protein, UniProt O75586 1-246) MAAVDIRDNLLGISWVDSSWIPILNSGSVLDYFSERSNPFYDRTCNNEVVKMQRLTLEHLNQMVGIEYILLHAQEPILFIIRKQQRQSPAQVIPLADYYIIAGVIYQAPDLGSVINSRVLTAVHGIQSAFDEAMSYCRYHPSKGYWWHFKDHEEQDKVRPKAKRKEEPSSIFQRQRVDALLLDLRQKFPPKFVQLKPGEKPVPVDQTKKEAEPIPETVKPEEKETTKNVQQTVSAKGPPEKRMRLQ			binds	binds	
